Measured values as given in publication PMC5428017, “Targeting to the non-genomic activity of retinoic acid receptor-gamma by acacetin in hepatocellular carcinoma” (Scientific Reports, 2017).
These are yes or no findings as the source states them, for the method shown. In cells and extracts the contact can be indirect. Some entries that bind do so weakly or less than the wild type.

The chains behind the UniProt entries cited, without tags or fusion partners.
UniProt P27986: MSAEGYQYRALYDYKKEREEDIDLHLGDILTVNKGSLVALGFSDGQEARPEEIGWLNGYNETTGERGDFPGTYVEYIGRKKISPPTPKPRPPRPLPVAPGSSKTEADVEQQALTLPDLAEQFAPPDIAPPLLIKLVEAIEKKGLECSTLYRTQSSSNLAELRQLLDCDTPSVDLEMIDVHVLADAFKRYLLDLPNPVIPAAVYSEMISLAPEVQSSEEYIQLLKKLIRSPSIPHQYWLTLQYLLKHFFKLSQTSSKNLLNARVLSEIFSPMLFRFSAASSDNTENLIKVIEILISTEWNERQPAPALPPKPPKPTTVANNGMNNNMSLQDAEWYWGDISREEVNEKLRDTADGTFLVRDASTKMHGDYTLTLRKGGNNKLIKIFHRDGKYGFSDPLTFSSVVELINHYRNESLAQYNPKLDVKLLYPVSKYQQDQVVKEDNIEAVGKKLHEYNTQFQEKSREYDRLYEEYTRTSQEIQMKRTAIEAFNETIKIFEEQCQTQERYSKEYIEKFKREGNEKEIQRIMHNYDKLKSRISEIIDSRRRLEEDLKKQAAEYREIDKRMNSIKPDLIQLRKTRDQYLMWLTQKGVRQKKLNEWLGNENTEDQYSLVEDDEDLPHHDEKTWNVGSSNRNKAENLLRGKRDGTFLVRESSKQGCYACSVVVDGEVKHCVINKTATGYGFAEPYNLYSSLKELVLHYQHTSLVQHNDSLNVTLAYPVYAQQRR

Target: T1, retinoic acid receptor-γ (RARγ) (human (endogenous in HepG2)) (UniProt P13631)
T1 sequence: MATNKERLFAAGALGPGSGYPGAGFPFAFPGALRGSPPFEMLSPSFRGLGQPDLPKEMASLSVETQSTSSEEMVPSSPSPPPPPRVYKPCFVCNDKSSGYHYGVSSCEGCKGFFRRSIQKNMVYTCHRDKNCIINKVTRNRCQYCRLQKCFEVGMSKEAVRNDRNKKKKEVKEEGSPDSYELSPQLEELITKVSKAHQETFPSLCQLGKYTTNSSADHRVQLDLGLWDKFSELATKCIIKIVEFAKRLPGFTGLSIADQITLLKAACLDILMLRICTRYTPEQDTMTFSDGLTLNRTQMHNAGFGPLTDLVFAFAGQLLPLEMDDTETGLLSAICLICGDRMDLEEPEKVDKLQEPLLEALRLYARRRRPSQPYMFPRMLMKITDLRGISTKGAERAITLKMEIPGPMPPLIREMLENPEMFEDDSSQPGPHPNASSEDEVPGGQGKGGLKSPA
Experiment: co-IP; HepG2 cells treated with vehicle for 12 h; lysate (1% Triton X-100, 20 mM Hepes pH 7.6, 150 mM NaCl, 1 mM EDTA) incubated with anti-RARγ antibody at 4 °C overnight, protein A/G agarose; blotted with anti-RARγ and anti-p85α; rabbit IgG as control

binding: binds
Substance: p85α regulatory subunit of PI3K (from UniProt P27986 1-724)
